Consider one substance from PMC12847959.

Protein sequences, listed by entry. Tags and fused reporters are not part of them.
UniProt P09936: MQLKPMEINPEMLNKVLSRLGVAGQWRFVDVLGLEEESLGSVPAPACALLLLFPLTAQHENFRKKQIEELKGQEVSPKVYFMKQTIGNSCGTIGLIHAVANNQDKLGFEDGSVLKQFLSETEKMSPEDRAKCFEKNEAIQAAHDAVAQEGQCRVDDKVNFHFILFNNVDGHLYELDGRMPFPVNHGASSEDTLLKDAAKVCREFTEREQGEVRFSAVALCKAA
UniProt Q15672: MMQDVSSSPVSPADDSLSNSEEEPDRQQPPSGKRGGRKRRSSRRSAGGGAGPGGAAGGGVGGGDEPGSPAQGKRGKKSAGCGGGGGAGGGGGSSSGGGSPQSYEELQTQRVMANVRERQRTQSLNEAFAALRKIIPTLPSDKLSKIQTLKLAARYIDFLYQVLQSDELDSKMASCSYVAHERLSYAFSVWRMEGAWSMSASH

The assay concerns the target ubiquitin C-terminal hydrolase L1 (UCHL1) (human (endogenous in A549 and H1299)) (UniProt P09936). The experiment in a line: co-IP; endogenous proteins in A549 and H1299 lysates; IP with control IgG, anti-UCHL1 and anti-Twist1 antibodies, Protein A/G agarose; lysis in 50 mM Tris-HCl pH 8.0, 150 mM NaCl, 1% NP-40; 4 °C.

These are yes or no findings as the source states them, for the method shown. Binding seen in cells or lysates may run through a third protein. Some binding calls cover weakened binding; strength is not graded here.

Consider Twist1 (from UniProt Q15672 1-202), for which the binding result is “binds”.
